Source: patent US20230227832, “ANTICANCER APTAMERS AND USES THEREOF” (CONSIGLIO NAZIONALE DELLE RICERCHE, published 2023)

Sequences of proteins named here, by UniProt entry; tags and fusion partners are left off. Residues count along the entry.
UniProt O60565, 25-184: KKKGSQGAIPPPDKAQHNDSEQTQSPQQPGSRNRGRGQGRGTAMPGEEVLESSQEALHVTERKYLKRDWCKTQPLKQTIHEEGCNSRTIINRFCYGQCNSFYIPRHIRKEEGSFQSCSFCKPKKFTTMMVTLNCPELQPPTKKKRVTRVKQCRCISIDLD

Legend:
[1] = molecular target: Gremlin-1 (GREM1), overexpressed in U87MG (UniProt O60565); assay: pull-down; conditions: 2'-F pyrimidines (2'-F-C, 2'-F-U; per library chemistry); whole lysate of U87MG transfected with GREM1 vector; streptavidin bead pulldown, GREM1 immunoblot; protein in a lysate after overexpression; label: biotin
[2] = molecular target: Gremlin-1 (GREM1), overexpressed from transfected cDNA in U87MG cells (UniProt O60565); assay: binding assay; conditions: 2'-F pyrimidines (2'-F-C, 2'-F-U; per library chemistry); binding to U87MG cells increases upon GREM1 overexpression; exosomes from GREM1-transfected cells also bound more (FIG. 7F); protein in cells; label: biotin

Question: Does “UGUGGCAGUUAAGAAUAGAUCUUCGCUGCGAUU [ex-50.T]” bind [1]?
Answer: binds

Question: Does “UGUGGCAGUUAAGAAUAGAUCUUCGCUGCGAUU [ex-50.T]” bind [2]?
Answer: binds

At least one result comes from cells or an extract, where the contact may be indirect.
